46 compounds from PMC6925144, “A prospective compound screening contest identified broader inhibitors for Sirtuin 1” (Scientific Reports, 2019) can be followed below.

Protein sequences, listed by entry. Tags and fused reporters are not part of them. Residues count along the entry.
UniProt Q96EB6, 2-747 limits assumed: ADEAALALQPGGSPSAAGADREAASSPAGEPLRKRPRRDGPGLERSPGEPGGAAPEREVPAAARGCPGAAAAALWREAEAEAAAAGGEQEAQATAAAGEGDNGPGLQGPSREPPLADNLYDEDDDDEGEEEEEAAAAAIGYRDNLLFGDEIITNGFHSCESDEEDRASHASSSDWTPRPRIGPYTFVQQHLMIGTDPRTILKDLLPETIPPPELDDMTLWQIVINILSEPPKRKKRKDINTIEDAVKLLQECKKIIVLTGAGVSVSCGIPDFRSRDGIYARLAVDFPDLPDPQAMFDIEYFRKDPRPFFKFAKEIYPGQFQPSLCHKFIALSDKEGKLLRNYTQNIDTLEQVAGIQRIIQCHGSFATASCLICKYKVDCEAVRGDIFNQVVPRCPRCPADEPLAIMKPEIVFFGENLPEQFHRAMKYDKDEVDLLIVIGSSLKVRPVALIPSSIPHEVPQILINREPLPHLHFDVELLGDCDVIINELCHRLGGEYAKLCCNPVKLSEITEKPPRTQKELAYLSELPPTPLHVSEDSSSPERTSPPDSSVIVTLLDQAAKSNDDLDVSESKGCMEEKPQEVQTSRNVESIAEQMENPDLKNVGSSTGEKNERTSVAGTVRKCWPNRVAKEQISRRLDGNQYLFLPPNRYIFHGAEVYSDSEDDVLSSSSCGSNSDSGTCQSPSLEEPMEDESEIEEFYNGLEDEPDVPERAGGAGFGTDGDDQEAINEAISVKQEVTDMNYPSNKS

Over roughly 3,200 compounds, “TSA(with NAD+) / Primary screening (TSA) / delta Tm (K)” has its median near -0.04; the highest 2% begin near 0.37. The list shows a part of the results.

This assay addresses NAD-dependent deacetylase Sirtuin 1 (human, UniProt Q96EB6). Nature of the assay: primary screen, delta tm. Further details: single well (n = 1, as 'the same TSA'). Particulars: 10 µM.
In the case of `NC(=O)c1cccc(NC(=O)C2CCN(S(=O)(=O)c3cccs3)CC2)c1`, the “TSA(with NAD+) / Primary screening (TSA) / delta Tm (K)” value was -0.11 K. The same measure for `COc1cc(CNC(=O)NCCC2=CCCCC2)ccn1`: 0.09 K; for `CC(c1ccc(S(N)(=O)=O)cc1)N(C)Cc1nc2ccccc2c(=O)[nH]1` (stereo not shown): -0.21 K; for `O=S(=O)(O)CC(O)CO` (stereo not shown): 0.05 K. The same measure for `CC(=O)Cn1c(CN2CCC(C(N)=O)CC2)nc2c1c(=O)n(C)c(=O)n2C`: 0.03 K. As for `O=C(CN1CCC(Cc2ccccc2)CC1)NCc1ccc(F)cc1`, the figure is -0.01 K; as for `CC(O)CCN` (stereo not shown), -0.09 K.

Take `Cc1cc(N2CCN(Cc3nc4ccccc4s3)CC2)n2ncnc2n1`: the “TSA(with NAD+) / Primary screening (TSA) / delta Tm (K)” value is -0.11 K.

As to `COc1cc(/C=C/C(=O)Nc2ccc3c(c2)OCCO3)cc(OC)c1`, the “TSA(with NAD+) / Primary screening (TSA) / delta Tm (K)” value is given as 0.15 K. Turning to `O=C(CC12CC3CC(CC(C3)C1)C2)NNC(=O)c1ccc(S(=O)(=O)N2CCc3ccccc3C2)cc1`, the “TSA(with NAD+) / Primary screening (TSA) / delta Tm (K)” value is 0.26 K. The same measure for `CN(Cc1cccc(F)c1)C(=O)c1cnc2ccccn2c1=O`: -0.12 K; for `Cc1noc(COC(=O)c2cc(-c3ccc(C)o3)nc3ccccc23)n1`: -0.04 K; for `COc1ccc(-c2nn(-c3ccccc3)cc2CN(CCCCCCN(Cc2cn(-c3ccccc3)nc2-c2ccc(OC)cc2)C(=O)CCC(=O)O)C(=O)CCC(=O)O)cc1`: 0.21 K. The same measure for `Cc1cc(NC(=O)N2Cc3cc4c(cc3C3(CCCC3)C2)OCCO4)no1`: -0.09 K; for `Cc1cc(=O)[nH]c(-c2cccc(NC(=O)c3ccc4c(c3)CCC4)c2)n1`: -0.23 K. As to `Cc1nn(C)c2ncc(S(=O)(=O)N(C)c3ccc(F)cc3)cc12`, the “TSA(with NAD+) / Primary screening (TSA) / delta Tm (K)” value is recorded as 0.12 K. The same measure for `O=C(C1CCN(c2cc(=O)n3ccccc3n2)CC1)N1CCCCC1`: 0.05 K. As for `COc1ccc(CCNC(=O)CSc2nnc(C)s2)cc1OC`, the figure is -0.18 K. The same measure for `Cc1nc(-c2ccccc2)sc1C(=O)C1=C(O)C(=O)N(CCN2CCOCC2)C1c1cccs1` (stereo not shown): -0.01 K; for `COc1cc(CN(C)C(=O)Cc2c[nH]c3ccccc23)ccc1OCc1ccccc1`: -0.22 K; for `O=C(NCC1CC2c3ccccc3C1c1ccccc12)c1cnccn1` (stereo not shown): 0.08 K. As to `COc1ccccc1/C=C1/Oc2cc(O)ccc2C1=O`, the “TSA(with NAD+) / Primary screening (TSA) / delta Tm (K)” value is recorded as -0.04 K.

As for `Cc1nc(-c2cccc(N3CC(C(=O)O)CC3=O)c2)oc1C` (stereo not shown), the “TSA(with NAD+) / Primary screening (TSA) / delta Tm (K)” value was -0.06 K. As to `NCCN1CCC1`, the “TSA(with NAD+) / Primary screening (TSA) / delta Tm (K)” value was determined as 0.01 K.

Turning to `CNCC1CCN(S(=O)(=O)c2ccc(C#N)cc2C)CC1`, the “TSA(with NAD+) / Primary screening (TSA) / delta Tm (K)” value is on record as -0.01 K. With `C#CCC(Nc1nc(-c2cccnc2)nc2ccccc12)C(N)=O` (stereo not shown), the “TSA(with NAD+) / Primary screening (TSA) / delta Tm (K)” value is -0.23 K. As to `CN(CCO)c1ncnc2c1oc1ccccc12`, the “TSA(with NAD+) / Primary screening (TSA) / delta Tm (K)” value was -0.32 K.

Turning to `Cc1nc2c(cc1C(=O)N(C)C)c(C)nn2C`, the “TSA(with NAD+) / Primary screening (TSA) / delta Tm (K)” value is listed as -0.05 K.

On to `C#CCC(NC(=O)c1cccc(S(=O)(=O)N(C)c2ccc(C)cc2)c1)C(N)=O` (stereo not shown), for which the “TSA(with NAD+) / Primary screening (TSA) / delta Tm (K)” value is on record as -0.22 K. The same measure for `CC1(C)CCC(NC(=O)c2ccc3c(c2)C(=O)NC3=O)c2ccccc21` (stereo not shown): 0.16 K; for `COc1cccc(/C=C/C(=O)N2CCC(CC(N)=O)CC2)c1OC`: 0.03 K; for `CN(c1cccnn1)C1CCN(c2ncnc3c2oc2ccccc23)CC1`: -0.01 K. Turning to `NC(=O)CN(Cc1ccc(OCc2ccccc2)cc1)C(=O)c1ccncc1`, the “TSA(with NAD+) / Primary screening (TSA) / delta Tm (K)” value stood at 0.06 K. The same measure for `O=c1ccncn1CC1Cc2ccccc2O1` (stereo not shown): -0.11 K; for `Cc1ccc(NC(=O)CN2CCN(C(=O)c3ccc(-c4ccc(F)cc4)o3)CC2)cc1`: -0.11 K; for `COc1cccc(CN(C)CC(=O)NC(=O)NCc2ccccc2)c1`: -0.15 K. `Cc1cc(=O)[nH]c(-c2cccc(NC(=O)c3cnc4ccccc4n3)c2)n1`: the “TSA(with NAD+) / Primary screening (TSA) / delta Tm (K)” value is given as 0.01 K. As for `O=C(O)c1cc(S(=O)(=O)NCC2CCCO2)ccc1Br` (stereo not shown), the figure is -0.05 K; as for `O=C(NCc1ccc(C(=O)N2CCCCC2)cc1)c1ccccc1Nc1ccccc1`, 0.06 K; as for `CCC1(N)CC1`, -0.04 K. On to `CC1CCN(Cc2nc(N3CCNC(C(N)=O)C3)c3c4c(sc3n2)CCC4)CC1` (stereo not shown), for which the “TSA(with NAD+) / Primary screening (TSA) / delta Tm (K)” value is on record as -0.13 K. As for `CCn1c(C(=O)Nc2ccc3nc[nH]c(=O)c3c2)cc2ccccc21`, the figure is -0.13 K; as for `Cn1ncc2c(=O)n(CC(=O)N3CCCc4c(C(N)=O)cccc43)cnc21`, -0.21 K; as for `NC(=O)C1CCCCC1NCc1nc2c(s1)CCC2` (stereo not shown), -0.06 K. On to `COc1ccc(C(=O)NNC(=O)COc2ccccc2C)cc1S(=O)(=O)NC(C)C12CC3CC(CC(C3)C1)C2` (stereo not shown), for which the “TSA(with NAD+) / Primary screening (TSA) / delta Tm (K)” value was 0.36 K. As for `O=C(CNC(=O)C12CC3CC(CC(C3)C1)C2)N1CCN(S(=O)(=O)c2ccc3ccccc3c2)CC1`, the figure is -0.18 K.
